# Assay results taken from PMC7819943, “Rice protein-binding microarrays: a tool to detect cis-acting elements near promoter regions in rice”.
# This is one part of the list.
# Molecular target: T1, OsSMF1 (Oryza sativa, UniProt Q6ZLB0 1-436)
# T1 sequence: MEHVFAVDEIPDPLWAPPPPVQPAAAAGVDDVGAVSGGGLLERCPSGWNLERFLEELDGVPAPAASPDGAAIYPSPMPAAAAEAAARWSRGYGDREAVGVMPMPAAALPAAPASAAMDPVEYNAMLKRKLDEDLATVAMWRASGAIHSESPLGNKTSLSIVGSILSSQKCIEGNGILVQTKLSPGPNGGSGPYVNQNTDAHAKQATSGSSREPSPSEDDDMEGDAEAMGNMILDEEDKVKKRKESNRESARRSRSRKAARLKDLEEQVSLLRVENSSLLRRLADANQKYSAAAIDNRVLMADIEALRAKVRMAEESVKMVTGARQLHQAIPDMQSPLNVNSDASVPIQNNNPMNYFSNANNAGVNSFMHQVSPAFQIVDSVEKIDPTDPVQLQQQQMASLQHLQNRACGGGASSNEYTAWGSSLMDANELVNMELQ
# Assay: protein-binding microarray (RPBM); PBS, 2% BSA, 51.3 ng/ul salmon testes DNA, 50 uM zinc acetate, 200 nM TF, 25 C, 1 h; high values mean tight binding
# Settings: protein: recombinant; tags: N-terminal polyhistidine and DsRed monomer fusion (pET32a); chain copies: 2; label: CyDye5-dUTP incorporated in the synthesized complementary strand; 3' TTTTT single-stranded linker to array surface; dsDNA, one strand shown
# Outline: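 For the binding signal, per-feature fluorescence intensity was read in arbitrary units on an Axon 4000B scanner. Before scanning, a 2% BSA-blocked custom Agilent array made double-stranded with Cy5-dUTP was washed after 1 h at 25 °C with 200 nM protein and 50 µM zinc acetate. The proteins were Ni–NTA-purified transcription factors with N-terminal polyhistidine and DsRed fusions, expressed in E. coli BL21-CodonPlus.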
row,Sequence,binding signal
1,TGGGGAGACCCAAAATTAACAAACATTCAAACAGAAAGGACGGAGTCACCTAGTGCAG,13300 fluorescence intensity (a.u.)
2,TAGCTTCTCGTCGACGCTTTTGCCTCCGTCTATATAAGACCGGAGTCACCTAGTGCAG,3140 fluorescence intensity (a.u.)
3,CCCAATTGCGTCGTCGTGTCAGCCTCCGACCGTCTCCCCGCGGAGTCACCTAGTGCAG,6920 fluorescence intensity (a.u.)
4,CAAATGTCCAATTGACGCACCACCTCGATCCGTACCGTCGCGGAGTCACCTAGTGCAG,3700 fluorescence intensity (a.u.)
5,TCAGCCACATCATCACCACTGAATTGCATGGAACCTTGCTCGGAGTCACCTAGTGCAG,11600 fluorescence intensity (a.u.)
6,GGAAGTCTGGTTGTGGTCTGTTGTTGGCACCGTAGGTTTTCGGAGTCACCTAGTGCAG,3690 fluorescence intensity (a.u.)
7,CTCTCCCAGCGGTAATGGAGGGCGGTTTTGCTGACGTGGCCGGAGTCACCTAGTGCAG,58300 fluorescence intensity (a.u.)
8,AATTGACTCATATACGGATGACGTACCAAAATACCGGCAACGGAGTCACCTAGTGCAG,6910 fluorescence intensity (a.u.)
9,CTTCATTTATCTCAAAATATAATAACCTACAATCAGATGTCGGAGTCACCTAGTGCAG,10100 fluorescence intensity (a.u.)
10,AGTAGCACTACTAGTTAATGACGTAATGACCAAGTACTCGCGGAGTCACCTAGTGCAG,3950 fluorescence intensity (a.u.)
11,TAGTAGAATTTCTCACATTGACACGCGGCAAAACAAATACCGGAGTCACCTAGTGCAG,4980 fluorescence intensity (a.u.)
12,TATGTAGTACCACCCTGGTGTCACACATGTACCACTTGGTCGGAGTCACCTAGTGCAG,3910 fluorescence intensity (a.u.)
13,AGACCACCTCATGAAGCAATTTCTAGGCAAATTCCAGTGACGGAGTCACCTAGTGCAG,32400 fluorescence intensity (a.u.)
14,GAAAAGATAAGGCCACGCATGTCGTAGTTGACGTAGGCCCCGGAGTCACCTAGTGCAG,4870 fluorescence intensity (a.u.)
15,GCTAGCTTGTCTGTCTTTTGACTCTTCTGTTTCCATGAGGCGGAGTCACCTAGTGCAG,3380 fluorescence intensity (a.u.)
16,GGCCACGGGCGGGCCACGGCCACCGAGCGGTGAAAAGGGGCGGAGTCACCTAGTGCAG,3900 fluorescence intensity (a.u.)
17,GGAATGACGACGACGACGACGAGGAGTCATCGGCTCCGGGCGGAGTCACCTAGTGCAG,4070 fluorescence intensity (a.u.)
18,AAAGTACTCCCTATGATCTTTAATATATGATGTCATTTTACGGAGTCACCTAGTGCAG,6610 fluorescence intensity (a.u.)
19,GACTTTGGGAGGAAAAGGAGTCAAATTTCTGGTCAATGCACGGAGTCACCTAGTGCAG,22300 fluorescence intensity (a.u.)
20,GGCGACAGAGGTGGCCGCCGCGGCGTCGCACGCCACGACGCGGAGTCACCTAGTGCAG,3430 fluorescence intensity (a.u.)
21,CCCCGGACAGATCGGTCCACCTGTCCGTGACACGTGCTCACGGAGTCACCTAGTGCAG,11600 fluorescence intensity (a.u.)

row,Sequence,binding signal
1,TATCCTCTCGTTTTGTGCATGTCACCTAAATAGTTATAAACGGAGTCACCTAGTGCAG,3170 fluorescence intensity (a.u.)
2,TTGACATAAGTAGTTGTTTGGCCACTGTCGAAGTTGCAAGCGGAGTCACCTAGTGCAG,27800 fluorescence intensity (a.u.)
3,TTTGGCTGAAGCATATGTCCATCCAGCAATGTTGTACCAACGGAGTCACCTAGTGCAG,3150 fluorescence intensity (a.u.)
4,TCCGCAGCTTTCCGCGCACGCCACCTGTTCGACGGAACGCCGGAGTCACCTAGTGCAG,3350 fluorescence intensity (a.u.)
5,ATTATCCGTACCACTTTCATCCTACTCACCACCAGCAAGCCGGAGTCACCTAGTGCAG,4260 fluorescence intensity (a.u.)
6,TCCACGGGCCTCCCGGCCTCCTCGCCGCACACGTAGCCCGCGGAGTCACCTAGTGCAG,4040 fluorescence intensity (a.u.)
7,TTGTCCTAGGCTGACACGCCAGTCCCACTCTCTCCATTTACGGAGTCACCTAGTGCAG,4610 fluorescence intensity (a.u.)
8,TTAGGGTACAATTAAAACAAAATATTGATGCTTAAATTTCCGGAGTCACCTAGTGCAG,3250 fluorescence intensity (a.u.)
9,AGACTGGATTAACACTATGAGGTACATGTAACTCTCAATACGGAGTCACCTAGTGCAG,18100 fluorescence intensity (a.u.)
10,CCGCCCGGAAATGCTGCTCCCACGGCATTTTGCGCTGGCGCGGAGTCACCTAGTGCAG,3180 fluorescence intensity (a.u.)
11,CGTGGTCGACAACACCACCGACGTCGAGTCGGCGCGGCTCCGGAGTCACCTAGTGCAG,3400 fluorescence intensity (a.u.)
12,CCCAGCACCCTACTACACCAACATACTCCTACGTGGAGCACGGAGTCACCTAGTGCAG,6040 fluorescence intensity (a.u.)
13,GGCTCCGGAACTTACTCTAGCGCGCGTCGGATGACAAAATCGGAGTCACCTAGTGCAG,5060 fluorescence intensity (a.u.)
14,ACACTCCCATCCCACCTCCACCGACCGCGTCCGGTCCATCCGGAGTCACCTAGTGCAG,3580 fluorescence intensity (a.u.)
15,GCGCCATGATGTTCAATCAGATGACATCATAACGTAAAGACGGAGTCACCTAGTGCAG,3570 fluorescence intensity (a.u.)
16,TTCTTTATTAGACATACTCTGCCACCACTGCACACAATCCCGGAGTCACCTAGTGCAG,3640 fluorescence intensity (a.u.)
17,GGCCTCCGCCGCGCATGTGGAGCTCCACCTCTGTCGGCATCGGAGTCACCTAGTGCAG,3930 fluorescence intensity (a.u.)
18,AGATAACGTTTTGGTATCATACAGATAACGTACGTTCTGGCGGAGTCACCTAGTGCAG,15100 fluorescence intensity (a.u.)
19,GGAGGATGCGGGTGGTGGTGGAGGAGGAGGAGGCCGAGGTCGGAGTCACCTAGTGCAG,3650 fluorescence intensity (a.u.)
20,GGCGGTTAGCATGAGCCAATAACCGTGTGCCACGTTATTTCGGAGTCACCTAGTGCAG,7000 fluorescence intensity (a.u.)
21,TGTGCCAGTCACTGACAACATGTTATCTTATGACAAAATGCGGAGTCACCTAGTGCAG,3460 fluorescence intensity (a.u.)

# 3 entries from above, with tabs:
row	Sequence	binding signal
4	CAAATGTCCAATTGACGCACCACCTCGATCCGTACCGTCGCGGAGTCACCTAGTGCAG	3700 fluorescence intensity (a.u.)
5	TCAGCCACATCATCACCACTGAATTGCATGGAACCTTGCTCGGAGTCACCTAGTGCAG	11600 fluorescence intensity (a.u.)
6	GGAAGTCTGGTTGTGGTCTGTTGTTGGCACCGTAGGTTTTCGGAGTCACCTAGTGCAG	3690 fluorescence intensity (a.u.)
